Results from PMC6639060.
Changes are numbered by the printed parent chain. Read-outs that look alike come from different tables or passages of the source. No constants are given. Whether binding was seen depends on the method and setting. Binding seen in cells or lysates may run through a third protein. Some results given as binding are weak or reduced against the parent protein; the word gives no strength. Where a sequence is shown, tags or fusion partners need not be part of it. Each block holds one molecule with its values, some of them ahead of it.

The chains behind the UniProt entries cited, without tags or fusion partners.
UniProt P19328: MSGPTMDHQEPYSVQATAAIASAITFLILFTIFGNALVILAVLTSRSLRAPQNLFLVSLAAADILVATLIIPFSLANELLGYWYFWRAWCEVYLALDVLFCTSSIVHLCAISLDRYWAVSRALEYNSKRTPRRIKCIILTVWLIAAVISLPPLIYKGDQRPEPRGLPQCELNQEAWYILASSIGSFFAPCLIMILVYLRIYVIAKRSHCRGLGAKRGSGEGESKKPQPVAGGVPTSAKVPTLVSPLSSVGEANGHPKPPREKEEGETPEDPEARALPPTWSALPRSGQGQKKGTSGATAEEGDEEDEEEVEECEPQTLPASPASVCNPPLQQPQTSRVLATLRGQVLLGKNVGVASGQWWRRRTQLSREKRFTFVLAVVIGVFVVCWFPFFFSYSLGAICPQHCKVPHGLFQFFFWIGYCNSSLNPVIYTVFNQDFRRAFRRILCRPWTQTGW
UniProt Q92609: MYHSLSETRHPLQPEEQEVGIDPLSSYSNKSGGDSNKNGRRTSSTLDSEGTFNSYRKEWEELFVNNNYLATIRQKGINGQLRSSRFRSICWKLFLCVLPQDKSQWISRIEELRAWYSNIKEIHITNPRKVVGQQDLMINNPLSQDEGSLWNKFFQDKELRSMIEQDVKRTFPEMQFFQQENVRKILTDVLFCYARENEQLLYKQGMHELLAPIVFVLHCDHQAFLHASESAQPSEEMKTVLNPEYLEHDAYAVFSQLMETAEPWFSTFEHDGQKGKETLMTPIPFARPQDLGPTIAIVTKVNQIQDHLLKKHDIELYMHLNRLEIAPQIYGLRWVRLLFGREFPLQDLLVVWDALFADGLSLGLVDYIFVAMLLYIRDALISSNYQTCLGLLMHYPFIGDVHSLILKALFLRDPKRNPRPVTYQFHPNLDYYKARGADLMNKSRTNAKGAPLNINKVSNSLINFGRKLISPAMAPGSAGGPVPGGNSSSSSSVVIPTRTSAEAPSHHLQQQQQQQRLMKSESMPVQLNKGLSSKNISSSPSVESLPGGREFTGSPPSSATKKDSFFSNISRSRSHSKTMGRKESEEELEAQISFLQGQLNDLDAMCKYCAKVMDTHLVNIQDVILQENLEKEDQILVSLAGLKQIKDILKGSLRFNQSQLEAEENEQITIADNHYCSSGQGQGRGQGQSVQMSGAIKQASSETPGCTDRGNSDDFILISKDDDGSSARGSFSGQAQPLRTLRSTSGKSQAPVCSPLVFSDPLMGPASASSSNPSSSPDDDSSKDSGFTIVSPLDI

Columns and labels:
GST-Rab26 [1] = molecular target: T1, GST-Rab26 (UniProt Q9ULW5); test: pull-down; GST-Rab26 (wild type or mutant) fusion proteins (MagneGST pulldown system) incubated with total HEK293 cell lysates expressing TBC proteins or TBC1D6 domains; 500 μL binding buffer, 20 mM Tris-HCl pH 7.5, 140 m NaCl, 1% Nonidet P-40, 4 h at 4°C; bound proteins detected by immunoblotting; only the target purified
T1 sequence: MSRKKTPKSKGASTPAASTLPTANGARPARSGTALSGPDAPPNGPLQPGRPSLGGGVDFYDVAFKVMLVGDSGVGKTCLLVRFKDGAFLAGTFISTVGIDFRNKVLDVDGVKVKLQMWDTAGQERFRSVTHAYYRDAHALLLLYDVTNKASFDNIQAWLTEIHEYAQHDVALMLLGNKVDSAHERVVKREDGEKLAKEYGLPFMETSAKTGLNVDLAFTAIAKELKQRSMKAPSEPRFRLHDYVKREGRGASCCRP

GST-Rab26 [2] = molecular target: T1, GST-Rab26; test: as above; remark: listed apart in the source
GST-Rab26Q123L = molecular target: T2, GST-Rab26Q123L (UniProt Q9ULW5); test: as above
T2 sequence: T1 sequence with Q123L

GST-Rab26T77N = molecular target: T3, GST-Rab26T77N (UniProt Q9ULW5); test: as above
T3 sequence: T1 sequence with T77N

α2B-AR-Venus = α2B-AR-Venus (UniProt P19328); test: FRET or BRET; live cell BRET in HEK293 cells transfected with 0.1 μg Rab-Rluc8 and 1.5 μg α2B-AR-Venus plus 1.0 μg pCMV-myc vector or myc-TBC for 36 h

binding (GST-Rab26 [1]): no binding
Molecule: TBC1D5 (from UniProt Q92609 1-795)

binding (GST-Rab26 [2]): no binding
B1: TBC1D8B (protein, UniProt Q0IIM8 1-1120)
chain: MWLKPEEVLLKNALKLWLMERSNDYFVLQRRRGYGEEGGGGLTGLLVGTLDSVLDSTAKVAPFRILHQTPDSQVYLSIACGANREEITKHWDWLEQNIMKTLSVFDSNEDITNFVQGKIRGLIAEEGKHCFAKEDDPEKFREALLKFEKCFGLPEKEKLVTYYSCSYWKGRVPCQGWLYLSTNFLSFYSFLLGSEIKLIISWDEVSKLEKTSNVILTESIHVCSQGENHYFSMFLHINQTYLLMEQLANYAIRRLFDKETFDNDPVLYNPLQITKRGLENRAHSEQFNAFFRLPKGESLKEVHECFLWVPFSHFNTHGKMCISENYICFASQDGNQCSVIIPLREVLAIDKTNDSSKSVIISIKGKTAFRFHEVKDFEQLVAKLRLRCGAASTQYHDISTELAISSESTEPSDNFEVQSLTSQRECSKTVNTEALMTVFHPQNLETLNSKMLKEKMKEQSWKILFAECGRGVSMFRTKKTRDLVVRGIPETLRGELWMLFSGAVNDMATNPDYYTEVVEQSLGTCNLATEEIERDLRRSLPEHPAFQSDTGISALRRVLTAYAYRNPKIGYCQAMNILTSVLLLYAKEEEAFWLLVAVCERMLPDYFNRRIIGALVDQAVFEELIRDHLPQLTEHMTDMTFFSSVSLSWFLTLFISVLPIESAVNVVDCFFYDGIKAILQLGLAILDYNLDKLLTCKDDAEAVTALNRFFDNVTNKDSPLPSNVQQGSNVSDEKTSHTRVDITDLIRESNEKYGNIRYEDIHSMRCRNRLYVIQTLEETTKQNVLRVVSQDVKLSLQELDELYVIFKKELFLSCYWCLGCPVLKHHDPSLPYLEQYQIDCQQFRALYHLLSPWAHSANKDSLALWTFRLLDENSDCLINFKEFSSAIDIMYNGSFTEKLKLLFKLHIPPAYTEVKSKDASKGDELSKEELLYFSQLHVSKPANEKEAESAKHSPEKGKGKIDIQAYLSQWQDELFKKEENIKDLPRMNQSQFIQFSKTLYNLFHEDPEEESLYQAIAVVTSLLLRMEEVGRKLHSPTSSAKGFSGTVCGSGGPSEEKTGSHLEKDPCSFREEPQWSFAFEQILASLLNEPALVRFFEKPIDVKAKLENARISQLRSRTKM

binding (GST-Rab26Q123L): binds | binding (GST-Rab26T77N): binds | binding (GST-Rab26 [2]): binds
B2: TBC1D6 (protein, UniProt Q5TC63 1-336)
chain: MQPAERSRVPRIDPYGFERPEDFDDAAYEKFFSSYLVTLTRRAIKWSRLLQGGGVPRSRTVKRYVRKGVPLEHRARVWMVLSGAQAQMDQNPGYYHQLLQGERNPRLEDAIRTDLNRTFPDNVKFRKTTDPCLQRTLYNVLLAYGHHNQGVGYCQGMNFIAGYLILITNNEEESFWLLDALVGRILPDYYSPAMLGLKTDQEVLGELVRAKLPAVGALMERLGVLWTLLVSRWFICLFVDILPVETVLRIWDCLFNEGSKIIFRVALTLIKQHQELILEATSVPDICDKFKQITKGSFVMECHTFMQKIFSEPGSLSMATVAKLRESCRARLLAQG

binding (α2B-AR-Venus): binds
B3: Rab26-Rluc8 (protein, UniProt Q9ULW5 1-256)
chain: T1 sequence

binding (GST-Rab26 [2]): no binding
B4: RN-tre (protein, UniProt Q92738 1-828)
chain: MNSDQDVALKLAQERAEIVAKYDRGREGAEIEPWEDADYLVYKVTDRFGFLHEEELPDHNVAVERQKHLEIERTTKWLKMLKGWEKYKNTEKFHRRIYKGIPLQLRGEVWALLLEIPKMKEETRDLYSKLKHRARGCSPDIRQIDLDVNRTFRDHIMFRDRYGVKQQSLFHVLAAYSIYNTEVGYCQGMSQITALLLMYMNEEDAFWALVKLFSGPKHAMHGFFVQGFPKLLRFQEHHEKILNKFLSKLKQHLDSQEIYTSFYTMKWFFQCFLDRTPFTLNLRIWDIYIFEGERVLTAMSYTILKLHKKHLMKLSMEELVEFFQETLAKDFFFEDDFVIEQLQISMTELKRAKLDLPEPGKEDEYPKKPLGQLPPELQSWGVHHLSNGQRSVGRPSPLASGRRESGAPHRRHEHSPHPQSRTGTPERAQPPRRKSVEEESKKLKDEADFQRKLPSGPQDSSRQYNHAAANQNSNATSNIRKEFVPKWNKPSDVSATERTAKYTMEGKGRAAHPALAVTVPGPAEVRVSNVRPKMKALDAEDGKRGSTASQYDNVPGPELDSGASVEEALERAYSQSPRHALYPPSPRKHAEPSSSPSKVSNKFTFKVQPPSHARYPSQLDGEARGLAHPPSYSNPPVYHGNSPKHFPTANSSFASPQFSPGTQLNPSRRPHGSTLSVSASPEKSYSRPSPLVLPSSRIEVLPVDTGAGGYSGNSGSPKNGKLIIPPVDYLPDNRTWSEVSYTYRPETQGQSWTRDASRGNLPKYSAFQLAPFQDHGLPAVSVDSPVRYKASPAAEDASPSGYPYSGPPPPAYHYRNRDGLSIQESVLL

binding (GST-Rab26 [2]): no binding
B5: TBC1D20 (protein, UniProt Q96BZ9 1-403)
chain: MALRSAQGDGPTSGHWDGGAEKADFNAKRKKKVAEIHQALNSDPTDVAALRRMAISEGGLLTDEIRRKVWPKLLNVNANDPPPISGKNLRQMSKDYQQVLLDVRRSLRRFPPGMPEEQREGLQEELIDIILLILERNPQLHYYQGYHDIVVTFLLVVGERLATSLVEKLSTHHLRDFMDPTMDNTKHILNYLMPIIDQVNPELHDFMQSAEVGTIFALSWLITWFGHVLSDFRHVVRLYDFFLACHPLMPIYFAAVIVLYREQEVLDCDCDMASVHHLLSQIPQDLPYETLISRAGDLFVQFPPSELAREAAAQQQAERTAASTFKDFELASAQQRPDMVLRQRFRGLLRPEDRTKDVLTKPRTNRFVKLAVMGLTVALGAAALAVVKSALEWAPKFQLQLFP

binding (GST-Rab26 [2]): no binding
B6: TBC1D22A (protein, UniProt Q8WUA7 1-517)
chain: MASDGARKQFWKRSNSKLPGSIQHVYGAQHPPFDPLLHGTLLRSTAKMPTTPVKAKRVSTFQEFESNTSDAWDAGEDDDELLAMAAESLNSEVVMETANRVLRNHSQRQGRPTLQEGPGLQQKPRPEAEPPSPPSGDLRLVKSVSESHTSCPAESASDAAPLQRSQSLPHSATVTLGGTSDPSTLSSSALSEREASRLDKFKQLLAGPNTDLEELRRLSWSGIPKPVRPMTWKLLSGYLPANVDRRPATLQRKQKEYFAFIEHYYDSRNDEVHQDTYRQIHIDIPRMSPEALILQPKVTEIFERILFIWAIRHPASGYVQGINDLVTPFFVVFICEYIEAEEVDTVDVSGVPAEVLCNIEADTYWCMSKLLDGIQDNYTFAQPGIQMKVKMLEELVSRIDEQVHRHLDQHEVRYLQFAFRWMNNLLMREVPLRCTIRLWDTYQSEPDGFSHFHLYVCAAFLVRWRKEILEEKDFQELLLFLQNLPTAHWDDEDISLLLAEAYRLKFAFADAPNHYKK
